Columns and labels:
Assay in all cases: Antiproliferative MTT assay
Format in all cases: cell-based, human
Details in all cases: read-out: cisplatin IC50 [95% confidence interval]; 72 h
A2780 = tested on: A2780
Method: (§1) For the determination of the antiproliferative properties of the prepared extract and selected alkaloids (isopteropodine, mitraphylline, and uncarine D), an MTT assay was applied on our […] cell panel (see Table S4). […] All were maintained in a minimal essential medium completed with 10% fetal bovine serum, 1% non-essential amino acids, and 1% penicillin–streptomycin at 37 °C in a humidified atmosphere containing 5% CO2. All cell lines were purchased from the European Collection of Cell Cultures (Salisbury, UK), except for SiHa and C33A, which were from the American Tissue Culture Collection, LGC Standards GmbH (Wesel, Germany). Cell culture media and supplements were obtained from Lonza Group Ltd. (Basel, Switzerland). Cells were seeded into 96-well plates (C33A 10,000/well, all others 5000/well); after overnight incubation, the test substances were added and incubated for another 72 h under cell-culturing conditions. Uncaria tomentosa extract and the alkaloids were tested in the 1–90 μg/mL and 1–30 μM ranges, respectively. Finally, 20 μL of 5 mg/mL MTT solution was added to each well and incubated for 4 h; the medium was discarded, and the precipitated formazan crystals were dissolved in DMSO for 60 min with shaking. The absorbance was determined using a microplate reader (SPECTROstar Nano, BMG Labtech GmbH). Two independent experiments were performed with five parallels for each condition. Cisplatin, a clinically used anticancer agent (Ebewe GmbH, Unterach, Austria), was included as a reference compound. Calculations were conducted using the GraphPad Prism 10.0 software (GraphPad Software Inc., San Diego, CA, USA).
(§2) Table S4 – Antiproliferative properties of Uncaria tomentosa extract, three natural products (isopteropodine, mitraphylline, and uncarine D) and the
(§3) reference agent cisplatin.
(§4) Cell line Uncaria tomentosa isopteropodine mitraphylline uncarine D [95% confidence
(§5) 1: The highest applied concentration was 90 μg/mL and 30 μM for the extract and the pure natural products, respectively.
(§6) 2: Inhibitions less than 20% compared to the untreated control were regarded as negligible and were not given numerically.

MDA-MB-231 = tested on: MDA-MB-231
Method: as §1, §2, §3, §4, §5, §6

MCF7 = tested on: MCF7
Method: as §1, §2, §3, §4, §5, §6

HeLa = tested on: HeLa
Method: as §1, §2, §3, §4, §5, §6

Molecule N.N.[Cl][Pt][Cl] [cisplatin, reference compound] has an IC50 (A2780) of 5.27 µM, an IC50 (MDA-MB-231) of 26 µM and an IC50 (MCF7) of 8.34 µM. It also gave an IC50 (HeLa) of 12.1 µM.
